From the supplement of paper PMC10849652
The list shows a part of the results.

Protein sequences, listed by entry. Tags and fused reporters are not part of them. Lines headed by an entry give the natural chain unless they say otherwise; changes in a name come on top.
UniProt Q9UPN9: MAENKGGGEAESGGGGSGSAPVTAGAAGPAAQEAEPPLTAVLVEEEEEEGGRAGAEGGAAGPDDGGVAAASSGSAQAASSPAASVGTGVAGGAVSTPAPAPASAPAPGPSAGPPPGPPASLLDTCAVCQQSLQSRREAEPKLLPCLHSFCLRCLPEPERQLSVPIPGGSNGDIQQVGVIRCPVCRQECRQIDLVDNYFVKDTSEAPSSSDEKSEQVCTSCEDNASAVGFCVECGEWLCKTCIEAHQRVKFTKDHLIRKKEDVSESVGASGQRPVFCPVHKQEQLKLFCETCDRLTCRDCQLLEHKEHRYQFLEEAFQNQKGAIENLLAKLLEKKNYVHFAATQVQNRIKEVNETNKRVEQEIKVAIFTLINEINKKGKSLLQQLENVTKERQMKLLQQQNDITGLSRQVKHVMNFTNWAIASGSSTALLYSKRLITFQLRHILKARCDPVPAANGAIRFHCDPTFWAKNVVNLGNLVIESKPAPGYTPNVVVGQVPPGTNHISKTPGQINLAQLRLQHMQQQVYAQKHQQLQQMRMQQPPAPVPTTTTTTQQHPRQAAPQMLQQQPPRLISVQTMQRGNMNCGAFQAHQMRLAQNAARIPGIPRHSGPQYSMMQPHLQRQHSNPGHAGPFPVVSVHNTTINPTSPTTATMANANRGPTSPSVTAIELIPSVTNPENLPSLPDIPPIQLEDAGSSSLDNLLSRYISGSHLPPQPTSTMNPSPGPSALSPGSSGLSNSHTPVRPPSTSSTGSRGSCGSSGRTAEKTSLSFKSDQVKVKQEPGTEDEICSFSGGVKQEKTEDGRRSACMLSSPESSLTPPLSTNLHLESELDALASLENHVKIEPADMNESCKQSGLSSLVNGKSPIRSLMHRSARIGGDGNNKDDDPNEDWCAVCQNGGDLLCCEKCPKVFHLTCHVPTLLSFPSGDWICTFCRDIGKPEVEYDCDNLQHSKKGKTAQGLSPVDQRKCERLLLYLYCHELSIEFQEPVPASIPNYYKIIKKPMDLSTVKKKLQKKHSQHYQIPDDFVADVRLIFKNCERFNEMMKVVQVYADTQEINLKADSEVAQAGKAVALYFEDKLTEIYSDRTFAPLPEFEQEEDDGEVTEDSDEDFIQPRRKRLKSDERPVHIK
UniProt P06753, whole entry, looked up: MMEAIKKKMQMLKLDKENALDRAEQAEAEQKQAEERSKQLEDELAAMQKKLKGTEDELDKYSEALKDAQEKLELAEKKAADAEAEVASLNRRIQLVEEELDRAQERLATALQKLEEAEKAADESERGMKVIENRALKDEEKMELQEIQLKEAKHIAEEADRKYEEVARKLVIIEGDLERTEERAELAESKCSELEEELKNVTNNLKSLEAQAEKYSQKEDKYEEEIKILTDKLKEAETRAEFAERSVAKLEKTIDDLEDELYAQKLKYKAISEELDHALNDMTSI
UniProt O14545: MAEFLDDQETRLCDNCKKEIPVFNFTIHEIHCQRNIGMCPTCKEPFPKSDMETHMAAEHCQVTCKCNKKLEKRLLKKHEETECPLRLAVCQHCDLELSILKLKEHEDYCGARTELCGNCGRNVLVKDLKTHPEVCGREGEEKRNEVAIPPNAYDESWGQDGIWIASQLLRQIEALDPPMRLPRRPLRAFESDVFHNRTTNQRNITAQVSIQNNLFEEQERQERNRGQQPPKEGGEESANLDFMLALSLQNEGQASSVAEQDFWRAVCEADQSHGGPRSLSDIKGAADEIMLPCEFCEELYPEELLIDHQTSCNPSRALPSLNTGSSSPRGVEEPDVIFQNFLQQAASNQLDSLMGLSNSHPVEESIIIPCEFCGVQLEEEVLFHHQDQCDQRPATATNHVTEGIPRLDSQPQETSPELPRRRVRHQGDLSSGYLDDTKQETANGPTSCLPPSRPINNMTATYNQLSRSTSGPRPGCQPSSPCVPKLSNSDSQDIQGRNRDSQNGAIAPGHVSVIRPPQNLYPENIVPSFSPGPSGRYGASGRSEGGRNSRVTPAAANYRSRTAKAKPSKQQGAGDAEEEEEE
UniProt Q7Z4G4: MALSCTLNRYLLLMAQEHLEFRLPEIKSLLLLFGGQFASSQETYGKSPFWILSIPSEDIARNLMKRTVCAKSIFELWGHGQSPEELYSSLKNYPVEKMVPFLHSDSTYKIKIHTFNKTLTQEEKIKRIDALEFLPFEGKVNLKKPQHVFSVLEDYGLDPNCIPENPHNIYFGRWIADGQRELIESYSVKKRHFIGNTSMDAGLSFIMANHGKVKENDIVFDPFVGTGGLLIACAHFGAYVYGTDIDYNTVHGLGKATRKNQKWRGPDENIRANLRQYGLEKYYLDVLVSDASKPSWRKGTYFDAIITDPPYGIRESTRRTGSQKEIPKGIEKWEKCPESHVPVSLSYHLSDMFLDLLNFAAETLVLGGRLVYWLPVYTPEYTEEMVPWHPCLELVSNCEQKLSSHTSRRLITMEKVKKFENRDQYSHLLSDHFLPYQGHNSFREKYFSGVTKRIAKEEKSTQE
UniProt Q9UJA5: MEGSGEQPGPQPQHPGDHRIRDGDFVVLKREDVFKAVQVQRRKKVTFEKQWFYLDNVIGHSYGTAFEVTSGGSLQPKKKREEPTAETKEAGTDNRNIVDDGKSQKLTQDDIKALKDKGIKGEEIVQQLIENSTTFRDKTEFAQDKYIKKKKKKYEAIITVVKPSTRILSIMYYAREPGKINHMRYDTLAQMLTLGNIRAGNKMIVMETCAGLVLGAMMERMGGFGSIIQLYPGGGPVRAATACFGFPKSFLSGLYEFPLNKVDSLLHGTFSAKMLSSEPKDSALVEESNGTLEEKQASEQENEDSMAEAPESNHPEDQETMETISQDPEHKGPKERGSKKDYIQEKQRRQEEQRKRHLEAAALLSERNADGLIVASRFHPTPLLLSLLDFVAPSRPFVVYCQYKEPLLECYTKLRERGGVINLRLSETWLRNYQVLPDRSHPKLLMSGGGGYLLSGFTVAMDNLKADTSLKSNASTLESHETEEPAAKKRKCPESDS
UniProt Q02880: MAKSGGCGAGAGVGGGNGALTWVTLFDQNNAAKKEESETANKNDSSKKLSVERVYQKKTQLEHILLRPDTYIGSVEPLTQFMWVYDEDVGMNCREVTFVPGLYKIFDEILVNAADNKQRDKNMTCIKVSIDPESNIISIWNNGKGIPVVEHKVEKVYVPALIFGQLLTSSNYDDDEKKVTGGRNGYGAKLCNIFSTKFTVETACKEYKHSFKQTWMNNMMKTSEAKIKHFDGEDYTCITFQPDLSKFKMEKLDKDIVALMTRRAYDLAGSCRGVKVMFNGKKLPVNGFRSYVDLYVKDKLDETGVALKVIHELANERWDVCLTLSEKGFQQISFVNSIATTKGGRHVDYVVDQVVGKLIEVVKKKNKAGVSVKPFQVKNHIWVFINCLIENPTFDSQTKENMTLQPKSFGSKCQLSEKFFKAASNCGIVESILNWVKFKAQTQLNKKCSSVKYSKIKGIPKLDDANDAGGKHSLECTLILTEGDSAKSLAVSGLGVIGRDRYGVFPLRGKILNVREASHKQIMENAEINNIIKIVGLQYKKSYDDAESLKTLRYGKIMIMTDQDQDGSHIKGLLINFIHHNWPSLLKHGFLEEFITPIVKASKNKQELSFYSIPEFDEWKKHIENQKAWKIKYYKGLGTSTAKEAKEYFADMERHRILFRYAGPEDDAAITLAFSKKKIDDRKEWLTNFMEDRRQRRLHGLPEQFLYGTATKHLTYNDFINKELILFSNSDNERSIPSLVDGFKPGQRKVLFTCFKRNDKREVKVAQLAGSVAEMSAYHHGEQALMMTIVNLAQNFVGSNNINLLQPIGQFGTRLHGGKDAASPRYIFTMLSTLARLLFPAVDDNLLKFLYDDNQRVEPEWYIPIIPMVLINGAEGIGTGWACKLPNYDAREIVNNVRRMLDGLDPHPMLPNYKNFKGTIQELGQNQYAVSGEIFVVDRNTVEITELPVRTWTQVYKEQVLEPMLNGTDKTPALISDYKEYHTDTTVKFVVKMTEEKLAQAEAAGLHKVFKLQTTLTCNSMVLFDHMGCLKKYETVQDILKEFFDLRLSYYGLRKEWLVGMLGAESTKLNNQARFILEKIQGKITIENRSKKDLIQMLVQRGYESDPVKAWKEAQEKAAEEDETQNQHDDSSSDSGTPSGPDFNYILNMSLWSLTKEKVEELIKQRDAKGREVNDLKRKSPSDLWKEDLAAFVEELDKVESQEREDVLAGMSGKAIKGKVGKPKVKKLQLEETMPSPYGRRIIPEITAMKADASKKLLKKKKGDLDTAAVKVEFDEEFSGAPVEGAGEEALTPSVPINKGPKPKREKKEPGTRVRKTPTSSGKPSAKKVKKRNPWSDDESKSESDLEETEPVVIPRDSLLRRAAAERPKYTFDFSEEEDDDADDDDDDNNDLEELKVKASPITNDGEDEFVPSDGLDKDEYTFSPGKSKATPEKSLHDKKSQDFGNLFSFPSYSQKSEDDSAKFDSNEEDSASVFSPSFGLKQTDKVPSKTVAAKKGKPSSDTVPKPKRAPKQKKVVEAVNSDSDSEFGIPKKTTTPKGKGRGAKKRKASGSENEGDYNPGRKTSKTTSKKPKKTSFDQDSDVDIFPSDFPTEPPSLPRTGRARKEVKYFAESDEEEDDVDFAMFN
UniProt P13693: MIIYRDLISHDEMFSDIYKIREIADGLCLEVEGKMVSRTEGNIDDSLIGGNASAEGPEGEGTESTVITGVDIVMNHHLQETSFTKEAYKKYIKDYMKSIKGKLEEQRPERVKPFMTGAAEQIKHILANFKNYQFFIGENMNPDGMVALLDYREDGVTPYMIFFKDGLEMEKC
UniProt O15164: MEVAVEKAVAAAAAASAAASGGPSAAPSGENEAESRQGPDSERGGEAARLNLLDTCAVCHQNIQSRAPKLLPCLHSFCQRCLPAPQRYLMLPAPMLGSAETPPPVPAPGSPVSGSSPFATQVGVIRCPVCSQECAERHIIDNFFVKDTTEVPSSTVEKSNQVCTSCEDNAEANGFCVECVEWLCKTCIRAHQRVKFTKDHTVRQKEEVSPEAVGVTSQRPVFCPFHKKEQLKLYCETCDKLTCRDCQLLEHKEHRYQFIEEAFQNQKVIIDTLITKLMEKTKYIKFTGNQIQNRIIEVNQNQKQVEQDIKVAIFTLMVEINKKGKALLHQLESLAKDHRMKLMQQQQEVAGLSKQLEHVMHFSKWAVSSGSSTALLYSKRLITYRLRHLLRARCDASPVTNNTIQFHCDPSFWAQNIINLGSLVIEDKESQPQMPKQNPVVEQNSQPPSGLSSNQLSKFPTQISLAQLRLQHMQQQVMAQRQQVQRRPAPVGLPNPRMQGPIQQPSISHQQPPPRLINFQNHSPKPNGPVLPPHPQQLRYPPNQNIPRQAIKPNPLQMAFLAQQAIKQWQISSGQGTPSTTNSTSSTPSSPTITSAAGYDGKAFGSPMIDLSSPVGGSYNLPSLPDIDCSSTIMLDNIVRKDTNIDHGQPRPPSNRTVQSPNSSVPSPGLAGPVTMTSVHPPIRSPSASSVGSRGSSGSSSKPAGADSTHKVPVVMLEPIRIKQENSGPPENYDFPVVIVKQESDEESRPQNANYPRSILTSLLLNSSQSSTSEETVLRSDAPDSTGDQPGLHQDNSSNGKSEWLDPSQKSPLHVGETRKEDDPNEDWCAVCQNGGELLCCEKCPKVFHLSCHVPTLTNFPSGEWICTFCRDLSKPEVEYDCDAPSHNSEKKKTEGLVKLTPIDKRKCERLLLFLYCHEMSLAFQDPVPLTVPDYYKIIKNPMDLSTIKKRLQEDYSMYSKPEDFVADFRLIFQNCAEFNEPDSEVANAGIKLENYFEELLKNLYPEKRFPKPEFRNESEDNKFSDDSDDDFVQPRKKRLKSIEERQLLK
UniProt O43715: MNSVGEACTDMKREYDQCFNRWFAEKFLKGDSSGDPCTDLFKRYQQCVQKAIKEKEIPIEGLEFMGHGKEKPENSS
UniProt O75648: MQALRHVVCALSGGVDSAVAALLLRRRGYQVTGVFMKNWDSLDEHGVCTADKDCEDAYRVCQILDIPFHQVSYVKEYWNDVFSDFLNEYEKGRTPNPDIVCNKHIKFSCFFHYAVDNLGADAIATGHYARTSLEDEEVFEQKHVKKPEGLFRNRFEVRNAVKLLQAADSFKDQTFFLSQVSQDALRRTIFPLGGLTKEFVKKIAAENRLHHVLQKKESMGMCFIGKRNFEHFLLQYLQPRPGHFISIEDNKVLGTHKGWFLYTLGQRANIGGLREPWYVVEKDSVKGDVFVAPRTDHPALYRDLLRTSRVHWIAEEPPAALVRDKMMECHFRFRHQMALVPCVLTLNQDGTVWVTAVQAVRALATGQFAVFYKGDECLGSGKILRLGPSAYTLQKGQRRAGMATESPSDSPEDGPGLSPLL
UniProt P09493, whole entry, looked up: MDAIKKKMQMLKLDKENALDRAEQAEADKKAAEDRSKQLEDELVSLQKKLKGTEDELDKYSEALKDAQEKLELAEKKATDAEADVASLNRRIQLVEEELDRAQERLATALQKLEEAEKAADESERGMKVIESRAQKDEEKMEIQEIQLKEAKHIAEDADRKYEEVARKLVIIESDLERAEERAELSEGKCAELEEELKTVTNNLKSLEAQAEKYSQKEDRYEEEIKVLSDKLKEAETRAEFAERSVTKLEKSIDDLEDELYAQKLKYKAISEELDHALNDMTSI

Key:
Experiment in all cases: log2 fold change, soluble protein after heating vs DMSO (PISA); higher = thermal stabilisation; K562 cells, 10 uM, 30 min; active = over 0.2 and 3.5 SD of the protein, either way, in both replicates (recomputed)
[1] = compound: NC(=O)Nc1cc(-c2cccc(F)c2)sc1C(=O)N[C@H]1CCCNC1
Procedure, shortened: (§1)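 K562 cells at 2×10^6 cells/mL were treated with 10 μM compound for 30 min. Aliquots were heated for 3 min across 48°C-58°C, pooled, and extracted in PBS with 0.5% NP-40 at 4°C; soluble protein was the supernatant after 21,000xg for 90 min. Soluble protein was quantified by TMTpro 16plex LC-MS/MS with channel sums equalised, and reported as log2 fold change in thermal stability against DMSO controls, with values from duplicates.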

[2] = compound: NC(=O)c1cnc(N[C@@H]2CCCC[C@@H]2N)nc1Nc1cccc(-n2nccn2)c1
Procedure, shortened: as §1

[3] = compound: NC1(c2ccc(-c3nc4ccn5c(=O)[nH]nc5c4cc3-c3ccccc3)cc2)CCC1
Procedure, shortened: as §1

[4] = compound: NCC(=O)Nc1ccc(-n2nc(C(F)(F)F)cc2-c2ccc3c(ccc4ccccc43)c2)cc1
Procedure, shortened: as §1

entinostat = compound: Nc1ccccc1NC(=O)c1ccc(CNC(=O)OCc2cccnc2)cc1 [entinostat]
Procedure, shortened: as §1

vorinostat = compound: O=C(CCCCCCC(=O)Nc1ccccc1)NO [vorinostat]
Procedure, shortened: as §1

citarinostat = compound: O=C(CCCCCCNC(=O)c1cnc(N(c2ccccc2)c2ccccc2Cl)nc1)NO [citarinostat]
Procedure, shortened: as §1

silmitasertib = compound: O=C(O)c1ccc2c(c1)nc(Nc1cccc(Cl)c1)c1ccncc12 [silmitasertib]
Procedure, shortened: as §1

[5] = compound: O=C1NC(=O)C(c2cnc3ccccn23)=C1c1cn2c3c(cc(F)cc13)CN(C(=O)N1CCCCC1)CC2
Procedure, shortened: as §1

[6] = compound: c1cc(OCCN2CCCCC2)cc(-c2n[nH]c3ccc(-c4nnc[nH]4)cc23)c1
Procedure, shortened: as §1

entospletinib = compound: c1cn2cc(-c3ccc4cn[nH]c4c3)nc(Nc3ccc(N4CCOCC4)cc3)c2n1 [entospletinib]
Procedure, shortened: as §1

Measured: log2 fold change

TOP2A isoform 4 (UniProt P11388)
inactive: [1] 0.159 | [2] 0.058 | [3] 0.307 | [4] 0.19 | entinostat -0.042 | vorinostat 0.034 | citarinostat -0.112 | silmitasertib 0.255 | [5] 0.296 | [6] -0.205

TPP1 (UniProt O14773)
inactive: [1] -0.036 | [2] -0.037 | [3] -0.174 | [4] -0.08 | entinostat 0.036 | vorinostat 0.031 | citarinostat 0.035 | silmitasertib -0.036 | [5] -0.014 | [6] -0.091

TRIM32 (UniProt Q13049)
inactive: [1] -0.011 | [2] -0.066 | [3] -0.035 | [4] -0.075 | entinostat -0.018 | vorinostat -0.043 | citarinostat -0.058 | silmitasertib 0.15 | [5] -0.023 | [6] 0.141 | entospletinib -0.027

TRIM33 (UniProt Q9UPN9)
inactive: [1] 0.134 | [2] -0.114 | [3] -0.028 | [4] -0.002 | entinostat 0.091 | vorinostat 0.08 | citarinostat -0.002 | silmitasertib 0.029 | [5] -0.003 | [6] 0.135 | entospletinib 0.185

TPM3 isoform 4 (UniProt P06753)
inactive: [1] 0.017 | [2] -0.013 | [3] -0.025 | [4] 0.124 | entinostat -0.023 | vorinostat -0.154 | citarinostat 0.017 | silmitasertib 0.041 | [5] -0.032 | [6] -0.022 | entospletinib 0.011

TRAFD1 (UniProt O14545)
inactive: [1] 0.024 | [2] 0.005 | [3] 0.021 | [4] 0.109 | entinostat -0.078 | vorinostat -0.042 | citarinostat 0.051 | silmitasertib 0.033 | [5] -0.025 | [6] 0.012 | entospletinib -0.024

TPRKB (UniProt Q9Y3C4)
inactive: [1] -0.082 | [2] -0.001 | [3] -0.033 | [4] 0.056 | entinostat 0.016 | vorinostat -0.025 | citarinostat 0.054 | silmitasertib -0.005 | [5] -0.028 | [6] -0.053 | entospletinib -0.016

TRMT112 (UniProt Q9UI30)
inactive: [1] -0.036 | [2] -0.026 | [3] -0.008 | [4] 0.014 | entinostat -0.053 | vorinostat -0.108 | citarinostat 0.019 | silmitasertib -0.023 | [5] -0.108 | [6] -0.013 | entospletinib 0.022

TNKS1BP1 (UniProt Q9C0C2)
inactive: [1] -0.036 | [2] 0.051 | [3] 0.055 | [4] 0.105 | entinostat -0.061 | vorinostat -0.043 | citarinostat -0.031 | silmitasertib -0.005 | [5] 0.004 | [6] -0.05 | entospletinib 0.016

TPM1 (UniProt H7BYY1)
inactive: [1] -0.009 | [2] -0.115 | [3] -0.004 | [4] 0.033 | entinostat -0.015 | vorinostat -0.112 | citarinostat -0.047 | silmitasertib 0.005 | [5] -0.051 | [6] -0.017 | entospletinib 0.02

TRIP6 (UniProt Q15654)
inactive: [1] -0.018 | [2] 0.03 | [3] 0.015 | [4] 0.028 | entinostat 0.001 | vorinostat -0.017 | citarinostat 0.04 | silmitasertib -0.003 | [5] -0.014 | [6] 0.034 | entospletinib 0.018

TRMT11 (UniProt Q7Z4G4)
inactive: [1] -0.082 | [2] 0.051 | [3] -0.038 | [4] 0.03 | entinostat -0.054 | vorinostat 0.03 | citarinostat -0.016 | silmitasertib 0.017 | [5] -0.015 | [6] 0.008 | entospletinib 0.008

TRMT6 (UniProt Q9UJA5)
inactive: [1] -0.023 | [2] -0.145 | [3] 0.166 | [4] 0.044 | entinostat -0.058 | vorinostat 0.008 | citarinostat -0.079 | silmitasertib 0.095 | [5] 0.193 | [6] -0.123 | entospletinib 0.138

TOP2B (UniProt Q02880)
inactive: [1] 0.19 | [2] 0.023 | [3] 0.245 | [4] 0.173 | entinostat -0.03 | vorinostat -0.001 | citarinostat -0.128 | silmitasertib 0.129 | [5] 0.354 | [6] -0.129 | entospletinib 0.192

TRPV2 (UniProt Q9Y5S1)
inactive: [1] -0.079 | [2] 0.011 | [3] -0.035 | [4] 0.04 | entinostat -0.053 | vorinostat -0.024 | citarinostat 0.027 | silmitasertib 0.008 | [5] -0.059 | [6] -0.063 | entospletinib -0.01

TPT1 (UniProt P13693)
inactive: [1] 0 | [2] -0.049 | [3] -0.059 | [4] -0.039 | entinostat 0.02 | vorinostat 0.007 | citarinostat 0.056 | silmitasertib -0.077 | [5] -0.015 | [6] 0.004 | entospletinib 0.069

TRIM11 (UniProt Q96F44)
inactive: [1] -0.001 | [2] -0.02 | [3] -0.129 | [4] 0.007 | entinostat 0.023 | vorinostat -0.041 | citarinostat 0.033 | silmitasertib -0.028 | [5] -0.027 | [6] -0.043 | entospletinib 0.011

TOMM40 (UniProt O96008)
inactive: [1] 0.062 | [2] 0.003 | [3] -0.03 | [4] 0.02 | entinostat 0.019 | vorinostat -0.013 | citarinostat 0.057 | silmitasertib 0.012 | [5] 0.023 | [6] -0.009 | entospletinib -0.045

TRIM24 (UniProt O15164)
inactive: [1] 0.063 | [2] 0.143 | [3] -0.055 | [4] -0.086 | entinostat 0.067 | vorinostat 0.072 | citarinostat 0.133 | silmitasertib 0.115 | [5] 0.064 | [6] 0.269 | entospletinib 0.097

TPX2 (UniProt Q9ULW0)
inactive: [1] 0.121 | [2] 0.003 | [3] 0.078 | [4] 0.004 | entinostat -0.058 | vorinostat -0.111 | citarinostat -0.131 | silmitasertib 0.096 | [5] -0.027 | [6] -0.082 | entospletinib 0.032

TRIAP1 (UniProt O43715)
inactive: [1] -0.039 | [2] 0.062 | [3] 0.045 | [4] -0.005 | entinostat 0.041 | vorinostat -0.177 | citarinostat -0.024 | silmitasertib -0.025 | [5] -0.034 | [6] -0.038 | entospletinib 0.08

TSEN15 (UniProt Q8WW01)
inactive: [1] -0.059 | [2] -0.046 | [3] -0.043 | [4] -0.091 | entinostat -0.105 | vorinostat -0.022 | citarinostat -0.003 | silmitasertib 0.063 | [5] 0.026 | [6] -0.049 | entospletinib -0.04

TNFRSF1B (UniProt P20333)
inactive: [1] -0.134 | [2] -0.011 | [3] -0.026 | [4] 0.05 | entinostat -0.06 | vorinostat -0.018 | citarinostat 0.094 | silmitasertib -0.036 | [5] 0.006 | [6] -0.123 | entospletinib -0.012

TRAF4 (UniProt Q9BUZ4)
inactive: [1] 0.001 | [2] 0.084 | [3] -0.019 | [4] -0.046 | entinostat -0.022 | vorinostat 0.022 | citarinostat 0.025 | silmitasertib -0.009 | [5] -0.012 | [6] -0.027 | entospletinib 0.106

TRMU (UniProt O75648)
inactive: [1] -0.031 | [2] 0.032 | [3] -0.072 | [4] -0.031 | entinostat -0.096 | vorinostat 0.008 | citarinostat -0.044 | silmitasertib -0.009 | [5] -0.086 | [6] -0.003 | entospletinib -0.044

Five neighbouring records already listed, for reference:
TRMT11 (UniProt Q7Z4G4)
inactive: [1] -0.082 | [2] 0.051 | [3] -0.038 | [4] 0.03 | entinostat -0.054 | vorinostat 0.03 | citarinostat -0.016 | silmitasertib 0.017 | [5] -0.015 | [6] 0.008 | entospletinib 0.008

TRMT6 (UniProt Q9UJA5)
inactive: [1] -0.023 | [2] -0.145 | [3] 0.166 | [4] 0.044 | entinostat -0.058 | vorinostat 0.008 | citarinostat -0.079 | silmitasertib 0.095 | [5] 0.193 | [6] -0.123 | entospletinib 0.138

TOP2B (UniProt Q02880)
inactive: [1] 0.19 | [2] 0.023 | [3] 0.245 | [4] 0.173 | entinostat -0.03 | vorinostat -0.001 | citarinostat -0.128 | silmitasertib 0.129 | [5] 0.354 | [6] -0.129 | entospletinib 0.192

TRPV2 (UniProt Q9Y5S1)
inactive: [1] -0.079 | [2] 0.011 | [3] -0.035 | [4] 0.04 | entinostat -0.053 | vorinostat -0.024 | citarinostat 0.027 | silmitasertib 0.008 | [5] -0.059 | [6] -0.063 | entospletinib -0.01

TPT1 (UniProt P13693)
inactive: [1] 0 | [2] -0.049 | [3] -0.059 | [4] -0.039 | entinostat 0.02 | vorinostat 0.007 | citarinostat 0.056 | silmitasertib -0.077 | [5] -0.015 | [6] 0.004 | entospletinib 0.069

Additional entries

TOLLIP (UniProt Q9H0E2)
inactive: [1] 0.037 | [2] -0.043 | [3] -0.012 | [4] 0 | entinostat 0.054 | vorinostat 0.013 | citarinostat 0.044 | silmitasertib -0.069 | [5] -0.083 | [6] 0.303 | entospletinib -0.09

TPM1 isoform 4 (UniProt P09493)
inactive: [1] 0.056 | [2] 0.045 | [3] 0.09 | [4] 0.006 | entinostat 0.015 | vorinostat -0.003 | citarinostat 0.032 | silmitasertib -0.104 | [5] -0.015 | [6] 0.003 | entospletinib -0.011
